No constants are given. Whether binding was seen depends on the method and setting. In cells and extracts the contact can be indirect. Some binding calls cover weakened binding; strength is not graded here. Where a sequence is shown, tags or fusion partners need not be part of it.
What was measured:
[1] = molecular target: T1, FLAG-ESRRB^S25A stably expressed in mESCs (pCDH-EF1-FLAG-ESRRB^S25A-T2A-copGFP) (mouse) (UniProt Q61539); assay: co-IP; R1 mESCs stably expressing FLAG-ESRRB or FLAG-ESRRB^S25A; Sucrose-NP40 lysate with FLAG-magnetic beads, 4 °C, 2 h; endogenous OCT4 and NANOG detected by immunoblot
T1 sequence: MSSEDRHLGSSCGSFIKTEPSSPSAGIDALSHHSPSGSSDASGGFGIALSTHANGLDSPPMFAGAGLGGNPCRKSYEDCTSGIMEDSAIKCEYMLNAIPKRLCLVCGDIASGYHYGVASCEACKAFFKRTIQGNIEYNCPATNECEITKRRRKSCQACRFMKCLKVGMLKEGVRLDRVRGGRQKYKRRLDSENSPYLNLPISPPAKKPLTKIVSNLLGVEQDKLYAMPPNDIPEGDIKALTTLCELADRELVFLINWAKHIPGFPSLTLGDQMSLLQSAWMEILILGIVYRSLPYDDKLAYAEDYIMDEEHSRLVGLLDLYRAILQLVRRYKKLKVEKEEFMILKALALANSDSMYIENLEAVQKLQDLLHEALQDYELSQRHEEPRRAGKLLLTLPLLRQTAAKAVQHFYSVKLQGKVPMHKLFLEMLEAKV

[2] = molecular target: T2, FLAG-ESRRB stably expressed in mESCs (pCDH-EF1-FLAG-ESRRB^WT-T2A-copGFP) (mouse) (UniProt Q61539); assay: as above
T2 sequence: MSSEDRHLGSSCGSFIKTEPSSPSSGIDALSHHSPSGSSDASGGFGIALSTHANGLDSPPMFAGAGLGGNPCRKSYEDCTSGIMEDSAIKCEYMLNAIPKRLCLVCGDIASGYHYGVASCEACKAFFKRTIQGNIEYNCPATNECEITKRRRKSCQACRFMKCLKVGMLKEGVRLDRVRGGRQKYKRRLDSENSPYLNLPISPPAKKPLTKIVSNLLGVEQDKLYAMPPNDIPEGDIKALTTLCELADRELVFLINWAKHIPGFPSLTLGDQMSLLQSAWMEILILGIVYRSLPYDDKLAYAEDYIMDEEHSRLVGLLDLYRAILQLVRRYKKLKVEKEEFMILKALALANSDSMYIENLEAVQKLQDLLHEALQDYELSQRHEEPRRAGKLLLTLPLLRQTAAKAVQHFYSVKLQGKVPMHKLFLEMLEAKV

- binding [1]: binds
- binding [2]: binds
B1: NANOG, endogenous in mESCs (protein, UniProt Q80Z64 1-305)
chain: MSVGLPGPHSLPSSEEASNSGNASSMPAVFHPENYSCLQGSATEMLCTEAASPRPSSEDLPLQGSPDSSTSPKQKLSSPEADKGPEEEENKVLARKQKMRTVFSQAQLCALKDRFQKQKYLSLQQMQELSSILNLSYKQVKTWFQNQRMKCKRWQKNQWLKTSNGLIQKGSAPVEYPSIHCSYPQGYLVNASGSLSMWGSQTWTNPTWSSQTWTNPTWNNQTWTNPTWSSQAWTAQSWNGQPWNAAPLHNFGEDFLQPYVQLQQNFSASDLEVNLEATRESHAHFSTPQALELFLNYSVTPPGEI

Source: article PMC6731260
